PubChem BioAssay AID1259308 | NCATS – 2017

Screen: 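Candidate targets for better recombinant protein yield in mammalian cells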 (primary screen)
System: human HEK293 embryonic kidney cells stably expressing firefly luciferase (HEK-CMV-Luc2-Hygro)
Reagent: single siRNA against human genes, 0.8 pmol siRNA per well
Duration: 72 h
Detection: 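Luciferase light (ONE-Glo) measured on one replicate plate set and viability (CellTiter-Glo) on the other, scaled to a negative control siRNA, with robust z-scores and luciferase per cell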
Direction: total luciferase, z-score: higher = more reporter protein produced
Call rule: 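Active when the median/MAD z-score for overall luciferase is greater than 3; a gene was taken forward for validation with new siRNAs if at least two of its three siRNAs passed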
Meaning of the calls: active = raised luciferase; inactive = no rise
The deposit covers about 59,000 reagents; this is a random part of them. About 1,510 of all reagents (2.6%) were called active. 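Calls use total luciferase alone and ignore viability, so some active siRNAs may act by altering cell number.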 The numbers tell different reagents against one gene apart. Further read-outs or replicates are left out here. Reagent sequences are not shown.

total luciferase, z-score, by target gene and reagent
KCNN4 (potassium calcium-activated channel subfamily N member 4): #1 0.817 inactive; #2 0.291 inactive; #3 1.73 inactive
RFC2 (replication factor C subunit 2): #1 0.292 inactive; #2 -1.36 inactive; #3 0.0791 inactive
ZNF726P1 (zinc finger protein 726 pseudogene 1): #1 -0.491 inactive; #2 0.654 inactive; #3 -1.69 inactive
MAP3K13 (mitogen-activated protein kinase kinase kinase 13): #1 0.268 inactive; #2 0.904 inactive; #3 -1.49 inactive
NAPSA (napsin A aspartic peptidase): #1 -1.07 inactive; #2 2.16 inactive; #3 -2.18 inactive
SCAMP3: #1 -1.19 inactive; #2 1.08 inactive; #3 0.358 inactive
CELF2 (CUGBP Elav-like family member 2): #1 -1.34 inactive; #2 0.189 inactive; #3 -0.801 inactive
SLC2A2: #1 -0.436 inactive; #2 -0.603 inactive; #3 0.443 inactive
TCTN1 (tectonic family member 1): #1 -0.0305 inactive; #2 0.457 inactive; #3 -0.0246 inactive
OCIAD1 (OCIA domain containing 1): #1 0.411 inactive; #2 -0.855 inactive; #3 0.114 inactive
DNTT (DNA nucleotidylexotransferase): #1 -0.284 inactive; #2 0.0592 inactive; #3 -0.199 inactive
TCF12 (transcription factor 12): #1 -0.106 inactive; #2 -1.44 inactive; #3 -0.0762 inactive
FBXO43 (F-box protein 43): #1 2.32 inactive; #2 0.0455 inactive; #3 0.303 inactive
